Results taken from the supplement of paper PMC10338343.
± gives the standard deviation. The entries are a selection whose mix differs from that of the whole data set. Many entries were measured with a wide error. The list shows a part of the results.

What follows are sequences tested on MILI (PIWIL2) piRISC loaded with L1MC piRNA (26 nt) (assay: pre-steady-state target cleavage rate (min^-1); higher = faster piRNA-guided slicing of the target). Conditions: guide: L1MC piRNA 5'p-UAACUAAAUACUAUGCAAGCUGUAGG; auxiliary factor: 500 nM mouse GTSF1.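 Further: 1 nM active piRISC with 0.1 nM target library at 33 °C single turnover.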
Procedure, shortened: (§1)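 Active affinity-purified piRISC carrying one synthetic guide (1 nM) was mixed with a transcribed, DNA-blocked target RNA library […] in HEPES–potassium acetate buffer at 33 °C for 0–8 or 0–960 min, with or without 500 nM GTSF1 partner protein. Uncleaved targets were then sequenced and normalised to depth and to weakly complementary targets. Three trials were pooled, and k3 was capped at 0.0001 min^-1. A burst-and-steady-state fit was applied to obtain the pre-steady-state cleavage rate.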
UCCUGCUACUGCAUGCAUAGUAUUUAGUUA was tested, and the “pre-steady-state target cleavage rate” value was 0.282 ± 0.025.
UCCUGUUACAGCUUGCAUAGUAUUUAGUUA was tested, and the “pre-steady-state target cleavage rate” value was 0.328 ± 0.018.
In the case of UCCUGGAUGUCGAACGAUAAGUAUUUAGUUA, the “pre-steady-state target cleavage rate” value is reported as 0.000252 ± 0.025.
With UCCUCCUACAGCUUUGCAUAGUAUUUAGUUA the “pre-steady-state target cleavage rate” value was 0.291 ± 0.017.
For UCCUGGAUGUCGAACGUUAGUAUUUAGUUA, the “pre-steady-state target cleavage rate” value was less than 0.0001.
In the case of UCCUCCUACAGCUCGCAUAGUAUUUAGUUA, the “pre-steady-state target cleavage rate” value is reported as 0.288 ± 0.019.
For UCCUGCUGACAGCUUGCAUAGUAUUUAGUUA, the “pre-steady-state target cleavage rate” value was 0.327 ± 0.025.
UCCUGGUAGCAGCUUGCAUAGUAUUUAGUUA was tested, and the “pre-steady-state target cleavage rate” value was 0.286 ± 0.019.

Same assay, conditions: guide: L1MC piRNA 5'p-UAACUAAAUACUAUGCAAGCUGUAGG; auxiliary factor: none (no GTSF1)
For UCCUGCUAGAGCUUGCAUAGUUUUUAGUUA, the “pre-steady-state target cleavage rate” value was 0.00223 ± 0.0028.
In the case of UCCUGCUUCAGCUUGCAUAGUAUUUAGAAA, the “pre-steady-state target cleavage rate” value is reported as 0.00138 ± 0.0041.
In the case of UCCUCCUACAGCUUGCAUACUAUUUACAAA, the “pre-steady-state target cleavage rate” value is reported as 0.00109 ± 0.0055.
UCCUGGAUGUCGAUGCAUAGUAAUUAGUAA was tested, and the “pre-steady-state target cleavage rate” value was 0.000503 ± 0.015.
UCCUGGAUGUGCUUGGAUAGAAUUUAGUUA was tested, and the “pre-steady-state target cleavage rate” value was 0.00199 ± 0.0039.
For UCCUGCUACAGCUUGCUUAGUAUUUACUUA, the “pre-steady-state target cleavage rate” value was 0.00178 ± 0.0038.
UCCUGGAUGUGCUUGCAUAGUAAUUAGAUA was tested, and the “pre-steady-state target cleavage rate” value was 0.000931 ± 0.0083.
With UCCUGGAUCAGCUUGCAUAGAAUUAAGUUA the “pre-steady-state target cleavage rate” value was 0.0015 ± 0.0038.
In the case of UCCUGGAUGUCGUUGCAAAGUAUUAAGUUA, the “pre-steady-state target cleavage rate” value is reported as 0.00184 ± 0.0039.
UCCUGGAUGAGCUUGCAUUGUUUUUAGUUA was tested, and the “pre-steady-state target cleavage rate” value was 0.00285 ± 0.003.
With UCCUGGAACAGCUUGCAUAGCAUUUAGUUA the “pre-steady-state target cleavage rate” value was 0.00216 ± 0.0037.
With UCCUGGAUGUCGAACGUAUGUAAUUAGUUA the “pre-steady-state target cleavage rate” value was 0.000211 ± 0.019.
With UCCUGGAUGUCCUUGCAUAGUAUUUAAUUA the “pre-steady-state target cleavage rate” value was 0.00239 ± 0.0031.
With UCCUGGAACAGCUUCCAUAGUAUUUUCAAA the “pre-steady-state target cleavage rate” value was 0.00035 ± 0.014.
For UCCUGCUACAGCUUGCAUAGUAUUAUGUUA, the “pre-steady-state target cleavage rate” value was 0.0023 ± 0.0041.
For UCCUGGAACAGCUUGCAUAGUAUUUAGUA, the “pre-steady-state target cleavage rate” value was 0.00278 ± 0.0029.
For UCCUGGUACAGCUUGCAUUGUAUUUUGUUA, the “pre-steady-state target cleavage rate” value was 0.0017 ± 0.0055.
UCCUGCUACACCUUGCAUAGUAUUUAGAAA was tested, and the “pre-steady-state target cleavage rate” value was 0.00119 ± 0.0061.
UCCUGGAUGUCGAACCAUAGUAUUAAGUUA was tested, and the “pre-steady-state target cleavage rate” value was 0.000153 ± 0.022.
In the case of UCCUGGAUCAGCUUGCUUAGAAUUUAGUUA, the “pre-steady-state target cleavage rate” value is reported as 0.00161 ± 0.0032.
With UCCUGGUACAGCUUGCAUAGUAUUCAGUUA the “pre-steady-state target cleavage rate” value was 0.00285 ± 0.0032.
For UCCUCCAUGAGCUUGCAUAGUAUUUAGAAA, the “pre-steady-state target cleavage rate” value was 0.00119 ± 0.0047.
With UCCUGGAUGAGCUUGCAUAGUUUUUACUUA the “pre-steady-state target cleavage rate” value was 0.000992 ± 0.0064.
In the case of UCCUCCUACAGCUUGCUUAGUAUUAAGUUA, the “pre-steady-state target cleavage rate” value is reported as 0.00226 ± 0.0029.
For UCCUGGUACACCUUGCAUAGUAUUUAGAUA, the “pre-steady-state target cleavage rate” value was 0.00188 ± 0.0049.
With UCCUCGUACAGCUUGCAUAGUAUUUAGAUA the “pre-steady-state target cleavage rate” value was 0.00213 ± 0.003.
For UCCUGGAACAGCUUCGUUAGUAUUUUCAAA, the “pre-steady-state target cleavage rate” value was 0.000401 ± 0.013.
In the case of UCCUGGUACAGCUUGCAUAGUAUAUAGUAA, the “pre-steady-state target cleavage rate” value is reported as 0.00295 ± 0.0036.
UCCUGGUAGAGCUUGCAUAGUAUUUACUUA was tested, and the “pre-steady-state target cleavage rate” value was 0.00217 ± 0.004.
In the case of UCCUGGAACAGCUUGCAUAGUAUUUUCUAA, the “pre-steady-state target cleavage rate” value is reported as 0.00095 ± 0.0061.
For UCCUGGAUGACCUUGCAUAGUAUUUACUUA, the “pre-steady-state target cleavage rate” value was 0.00248 ± 0.0044.

The sequences below were run on EfPiwi piRISC loaded with L1MC piRNA (26 nt) (assay: pre-steady-state target cleavage rate (min^-1); guide: L1MC piRNA 5'p-UAACUAAAUACUAUGCAAGCUGUAGG; MIWI and MILI are mouse PIWI proteins and EfPiwi is from a freshwater sponge; tags in brackets are library labels; higher = faster piRNA-guided slicing of the target). Conditions: auxiliary factor: 500 nM Ephydatia muelleri Gtsf1.
Procedure, shortened: as §1
With UCCUGCUAGAGCUUGCAUAGUUUUUAGUUA the “pre-steady-state target cleavage rate” value was 0.00419 ± 0.0013.
For UCCUGCUUCAGCUUGCAUAGUAUUUAGAAA, the “pre-steady-state target cleavage rate” value was 0.00434 ± 0.0021.
For UCCUGGAUGUCGAUGCAUAGUAAUUAGUAA, the “pre-steady-state target cleavage rate” value was 0.000704 ± 0.0057.
UCCUGGAUGUGCUUGGAUAGAAUUUAGUUA was tested, and the “pre-steady-state target cleavage rate” value was 0.000304 ± 0.011.
UCCUGCUACAGCUUGCUUAGUAUUUACUUA was tested, and the “pre-steady-state target cleavage rate” value was 0.00194 ± 0.0036.
With UCCUGCUACUGCAUGCAUAGUAUUUAGUUA the “pre-steady-state target cleavage rate” value was 0.00847 ± 0.0024.
For UCCUGUUACAGCUUGCAUAGUAUUUAGUUA, the “pre-steady-state target cleavage rate” value was 0.231 ± 0.07.
With UCCUGGAUGUGCUUGCAUAGUAAUUAGAUA the “pre-steady-state target cleavage rate” value was 0.00395 ± 0.0024.
For UCCUGGAUGUCGAACGAUAAGUAUUUAGUUA, the “pre-steady-state target cleavage rate” value was 0.000142 ± 0.044.
UCCUGGAUCAGCUUGCAUAGAAUUAAGUUA was tested, and the “pre-steady-state target cleavage rate” value was 0.0017 ± 0.0019.
In the case of UCCUGGAUGUCGUUGCAAAGUAUUAAGUUA, the “pre-steady-state target cleavage rate” value is reported as 0.000328 ± 0.011.
UCCUGGAUGAGCUUGCAUUGUUUUUAGUUA was tested, and the “pre-steady-state target cleavage rate” value was 0.000739 ± 0.0065.
In the case of UCCUGGAACAGCUUCCAUAGUAUUUUCAAA, the “pre-steady-state target cleavage rate” value is reported as 0.00139 ± 0.0025.
UCCUGCUACAGCUUGCAUAGUAUUAUGUUA was tested, and the “pre-steady-state target cleavage rate” value was 0.00406 ± 0.002.
With UCCUGGAACAGCUUGCAUAGUAUUUAGUA the “pre-steady-state target cleavage rate” value was 0.00384 ± 0.0024.
For UCCUGGUACAGCUUGCAUUGUAUUUUGUUA, the “pre-steady-state target cleavage rate” value was 0.00266 ± 0.0026.
For UCCUGCUACACCUUGCAUAGUAUUUAGAAA, the “pre-steady-state target cleavage rate” value was 0.00176 ± 0.0023.
UCCUGGAUGUCGAACCAUAGUAUUAAGUUA was tested, and the “pre-steady-state target cleavage rate” value was less than 0.0001.
With UCCUGGAUCAGCUUGCUUAGAAUUUAGUUA the “pre-steady-state target cleavage rate” value was 0.000695 ± 0.0044.
In the case of UCCUCCUACAGCUUUGCAUAGUAUUUAGUUA, the “pre-steady-state target cleavage rate” value is reported as 0.123 ± 0.036.
For UCCUGGAUGAGCUUGCAUAGUUUUUACUUA, the “pre-steady-state target cleavage rate” value was 0.000551 ± 0.013.
For UCCUGGAUGUCGAACGUUAGUAUUUAGUUA, the “pre-steady-state target cleavage rate” value was 0.000112 ± 0.025.
In the case of UCCUCCUACAGCUUGCUUAGUAUUAAGUUA, the “pre-steady-state target cleavage rate” value is reported as 0.00459 ± 0.0031.
With UCCUGGUACACCUUGCAUAGUAUUUAGAUA the “pre-steady-state target cleavage rate” value was 0.00278 ± 0.0024.
In the case of UCCUCGUACAGCUUGCAUAGUAUUUAGAUA, the “pre-steady-state target cleavage rate” value is reported as 0.00437 ± 0.0019.
With UCCUGGAACAGCUUCGUUAGUAUUUUCAAA the “pre-steady-state target cleavage rate” value was 0.000247 ± 0.015.
With UCCUCCUACAGCUCGCAUAGUAUUUAGUUA the “pre-steady-state target cleavage rate” value was 0.0845 ± 0.019.
In the case of UCCUGGUAGAGCUUGCAUAGUAUUUACUUA, the “pre-steady-state target cleavage rate” value is reported as 0.00156 ± 0.004.
For UCCUGCUGACAGCUUGCAUAGUAUUUAGUUA, the “pre-steady-state target cleavage rate” value was 0.0486 ± 0.013.
For UCCUGGAACAGCUUGCAUAGUAUUUUCUAA, the “pre-steady-state target cleavage rate” value was 0.00231 ± 0.0025.
For UCCUGGAUGACCUUGCAUAGUAUUUACUUA, the “pre-steady-state target cleavage rate” value was 0.00136 ± 0.007.
With UCCUGGUAGCAGCUUGCAUAGUAUUUAGUUA the “pre-steady-state target cleavage rate” value was 0.0746 ± 0.02.

Same assay, conditions: auxiliary factor: none (no Gtsf1)
For UCCUCCUACAGCUUGCAUACUAUUUACAAA, the “pre-steady-state target cleavage rate” value was 0.000467 ± 0.015.
With UCCUGGAACAGCUUGCAUAGCAUUUAGUUA the “pre-steady-state target cleavage rate” value was 0.00101 ± 0.0094.
With UCCUGGAUGUCGAACGUAUGUAAUUAGUUA the “pre-steady-state target cleavage rate” value was 0.000116 ± 0.054.
For UCCUGGAUGUCCUUGCAUAGUAUUUAAUUA, the “pre-steady-state target cleavage rate” value was 0.000488 ± 0.015.
With UCCUGGUACAGCUUGCAUAGUAUUCAGUUA the “pre-steady-state target cleavage rate” value was 0.000431 ± 0.024.
In the case of UCCUCCAUGAGCUUGCAUAGUAUUUAGAAA, the “pre-steady-state target cleavage rate” value is reported as 0.000204 ± 0.023.
UCCUGGUACAGCUUGCAUAGUAUAUAGUAA was tested, and the “pre-steady-state target cleavage rate” value was 0.000341 ± 0.024.
